Results as given in patent US8138119B2, “Alkoxyalkyl spirocyclic tetramic acids and tetronic acids” (Bayer Cropscience AG, priority 2005, dated 2012).
Some results were stated once for a whole list of compounds, not compound by compound.

How the values were obtained:
Format in all cases: in vivo
[1] = system: larvae of the mustard beetle (Phaedon cochleariae); assay: Phaedon test (PHAECO spray treatment); conditions: 500 g/ha of a.i., after 7 d, Chinese cabbage disks sprayed
[2] = system: green peach aphid (Myzus persicae); assay: Myzus test (MYZUPE spray treatment); conditions: 500 g/ha of a.i., after 5 d, Chinese cabbage disks sprayed
[3] = system: greenhouse rat spider mite (Tetranychus urticae); assay: Tetranychus test; OP resistant (TETRUR spray treatment); conditions: 100 g/ha of a.i., after 5 d, bean leaf disks sprayed
[4] = system: Avena sativa; assay: Herbicidal post-emergence action; conditions: 320 g/ha of a.i., about 3 weeks
[5] = system: Lolium multiflorum; assay: Herbicidal post-emergence action; conditions: about 3 weeks
[6] = system: Setaria viridis; assay: Herbicidal post-emergence action; conditions: about 3 weeks
[7] = system: Echinochloa crusgalli; assay: Herbicidal post-emergence action; conditions: about 3 weeks; for herbicidal activity against Echinochloa crus-galli: 80 g/ha of a.i.; for herbicidal activity against Echinochloa crusgalli: 320 g/ha of a.i.
[8] = system: caterpillars of the armyworm (Spodoptera frugiperda); assay: Spodoptera frugiperda test (SPODFR spray treatment); conditions: 500 g/ha of a.i., after 7 d, maize leaf disks sprayed
[9] = system: cotton aphid (Aphis gossypii); assay: Aphis gossypii test (APHIGO); conditions: 100 ppm, cotton leaves dipped
[10] = system: Lolium multiflorum; assay: Herbicidal pre-emergence action; conditions: 320 g/ha of a.i., 3 weeks
[11] = system: Setaria viridis; assay: Herbicidal pre-emergence action; conditions: 320 g/ha of a.i., 3 weeks
[12] = system: green peach aphid (Myzus persicae); assay: Myzus persicae test; systemic treatment (MYZUPE SYS); conditions: 20 ppm in water, pea plant

COCC1CCC2(CC1)NC(=O)C(c1c(C)cc(C)cc1OC)=C2O (centres unmarked) [Example I-1-a-36]
≥ 80%: efficacy (beetle larvae killed) [1] | efficacy (aphids killed) [2] | efficacy (spider mites killed) [3] | herbicidal activity against Avena sativa [4] | herbicidal activity against Lolium multiflorum ([5]; 80 g/ha of a.i.) | herbicidal activity against Lolium multiflorum ([5]; 320 g/ha of a.i.) | herbicidal activity against Setaria viridis ([6]; 80 g/ha of a.i.) | herbicidal activity against Setaria viridis ([6]; 320 g/ha of a.i.) | herbicidal activity against Echinochloa crus-galli [7] | herbicidal activity against Echinochloa crusgalli [7]

CCOC(=O)OC1=C(c2c(C)cc(C)cc2OC)C(=O)NC12CCC(COC)CC2 (single isomer, unassigned) [Example I-1-c-18]
≥ 80%: efficacy (beetle larvae killed) [1] | efficacy (aphids killed) [2] | efficacy (caterpillars killed) [8] | efficacy (spider mites killed) [3] | herbicidal activity against Avena sativa [4] | herbicidal activity against Lolium multiflorum ([5]; 80 g/ha of a.i.) | herbicidal activity against Lolium multiflorum ([5]; 320 g/ha of a.i.) | herbicidal activity against Setaria viridis ([6]; 80 g/ha of a.i.) | herbicidal activity against Setaria viridis ([6]; 320 g/ha of a.i.) | herbicidal activity against Echinochloa crus-galli [7] | herbicidal activity against Echinochloa crusgalli [7]

COCCC1CCCC2(C1)NC(=O)C(c1c(C)cc(C)cc1C)=C2O (centres unmarked) [Example I-1-a-39]
≥ 80%: efficacy (beetle larvae killed) [1] | efficacy (aphids killed) [2] | efficacy (spider mites killed) [3] | herbicidal activity against Avena sativa [4] | herbicidal activity against Lolium multiflorum ([5]; 80 g/ha of a.i.) | herbicidal activity against Lolium multiflorum ([5]; 320 g/ha of a.i.) | herbicidal activity against Setaria viridis ([6]; 80 g/ha of a.i.) | herbicidal activity against Setaria viridis ([6]; 320 g/ha of a.i.) | herbicidal activity against Echinochloa crus-galli [7] | herbicidal activity against Echinochloa crusgalli [7]

CCOC(=O)OC1=C(c2c(C)cc(C)cc2C)C(=O)NC12CCC(COC)CC2 (single isomer, unassigned) [Example I-1-c-16]
≥ 80%: efficacy (beetle larvae killed) [1] | efficacy (aphids killed) [2] | efficacy (spider mites killed) [3] | herbicidal activity against Avena sativa [4] | herbicidal activity against Lolium multiflorum ([5]; 80 g/ha of a.i.) | herbicidal activity against Lolium multiflorum ([5]; 320 g/ha of a.i.) | herbicidal activity against Setaria viridis ([6]; 80 g/ha of a.i.) | herbicidal activity against Setaria viridis ([6]; 320 g/ha of a.i.) | herbicidal activity against Echinochloa crus-galli [7] | herbicidal activity against Echinochloa crusgalli [7]

CCCOCC1CCCC2(C1)NC(=O)C(c1c(C)cc(C)cc1C)=C2O (single isomer, unassigned) [Example I-1-a-11]
≥ 80%: efficacy (beetle larvae killed) [1] | efficacy (aphids killed) [2] | efficacy (caterpillars killed) [8] | efficacy (spider mites killed) [3] | efficacy (kill of aphids) [9] | herbicidal activity against Lolium multiflorum [10] | herbicidal activity against Setaria viridis [11]

CCOC(=O)OC1=C(c2c(C)cc(C)cc2CC)C(=O)NC12CCCC(COC)C2 (single isomer, unassigned) [Example I-1-c-13]
≥ 80%: efficacy (beetle larvae killed) [1] | efficacy (aphids killed) [2] | efficacy (spider mites killed) [3] | herbicidal activity against Avena sativa [4] | herbicidal activity against Lolium multiflorum ([5]; 80 g/ha of a.i.) | herbicidal activity against Lolium multiflorum ([5]; 320 g/ha of a.i.) | herbicidal activity against Setaria viridis ([6]; 80 g/ha of a.i.) | herbicidal activity against Setaria viridis ([6]; 320 g/ha of a.i.) | herbicidal activity against Echinochloa crus-galli [7] | herbicidal activity against Echinochloa crusgalli [7]

CCOC(=O)OC1=C(c2c(Cl)cc(C)cc2OC)C(=O)NC12CCCC(CCOC)C2 (single isomer, unassigned) [Example I-1-c-27]
≥ 80%: efficacy (beetle larvae killed) [1] | efficacy (aphids killed) [2] | efficacy (spider mites killed) [3] | herbicidal activity against Avena sativa [4] | herbicidal activity against Lolium multiflorum ([5]; 80 g/ha of a.i.) | herbicidal activity against Lolium multiflorum ([5]; 320 g/ha of a.i.) | herbicidal activity against Setaria viridis ([6]; 80 g/ha of a.i.) | herbicidal activity against Setaria viridis ([6]; 320 g/ha of a.i.) | herbicidal activity against Echinochloa crus-galli [7] | herbicidal activity against Echinochloa crusgalli [7]

COCCC1CCC2(CC1)NC(=O)C(c1c(Cl)cc(C)cc1OC)=C2OC(=O)C(C)C (single isomer, unassigned) [Example I-1-b-21]
≥ 80%: efficacy (beetle larvae killed) [1] | efficacy (aphids killed) [2] | efficacy (caterpillars killed) [8] | efficacy (spider mites killed) [3] | herbicidal activity against Avena sativa [4] | herbicidal activity against Lolium multiflorum ([5]; 80 g/ha of a.i.) | herbicidal activity against Lolium multiflorum ([5]; 320 g/ha of a.i.) | herbicidal activity against Setaria viridis ([6]; 80 g/ha of a.i.) | herbicidal activity against Setaria viridis ([6]; 320 g/ha of a.i.) | herbicidal activity against Echinochloa crus-galli [7] | herbicidal activity against Echinochloa crusgalli [7]

COCCC1CCC2(CC1)NC(=O)C(c1c(Cl)cc(C)cc1OC)=C2O (single isomer, unassigned) [Example I-1-a-51]
≥ 80%: efficacy (beetle larvae killed) [1] | efficacy (aphids killed) [2] | efficacy (caterpillars killed) [8] | efficacy (spider mites killed) [3] | herbicidal activity against Avena sativa [4] | herbicidal activity against Lolium multiflorum ([5]; 80 g/ha of a.i.) | herbicidal activity against Lolium multiflorum ([5]; 320 g/ha of a.i.) | herbicidal activity against Setaria viridis ([6]; 80 g/ha of a.i.) | herbicidal activity against Setaria viridis ([6]; 320 g/ha of a.i.) | herbicidal activity against Echinochloa crus-galli [7] | herbicidal activity against Echinochloa crusgalli [7]

COCC1CCC2(CC1)NC(=O)C(c1c(Cl)cc(Cl)cc1Cl)=C2O (centres unmarked) [Example I-1-a-38]
≥ 80%: efficacy (beetle larvae killed) [1] | efficacy (aphids killed) [2] | efficacy (caterpillars killed) [8] | efficacy (spider mites killed) [3] | herbicidal activity against Avena sativa [4] | herbicidal activity against Lolium multiflorum ([5]; 320 g/ha of a.i.) | herbicidal activity against Setaria viridis ([6]; 320 g/ha of a.i.) | herbicidal activity against Echinochloa crusgalli [7]

CCc1cc(Cl)cc(OC)c1C1=C(O)C2(CCCC(CCOC)C2)NC1=O (centres unmarked) [Example I-1-a-45]
≥ 80%: efficacy (aphids killed) [2] | efficacy (spider mites killed) [3] | herbicidal activity against Avena sativa [4] | herbicidal activity against Lolium multiflorum ([5]; 80 g/ha of a.i.) | herbicidal activity against Lolium multiflorum ([5]; 320 g/ha of a.i.) | herbicidal activity against Setaria viridis ([6]; 80 g/ha of a.i.) | herbicidal activity against Setaria viridis ([6]; 320 g/ha of a.i.) | herbicidal activity against Echinochloa crus-galli [7] | herbicidal activity against Echinochloa crusgalli [7]

COCCC1CCC2(CC1)NC(=O)C(c1c(C)cc(C)cc1C)=C2O (single isomer, unassigned) [Example I-1-a-55]
≥ 80%: efficacy (beetle larvae killed) [1] | efficacy (aphids killed) [2] | efficacy (caterpillars killed) [8] | efficacy (spider mites killed) [3] | herbicidal activity against Avena sativa [4] | herbicidal activity against Lolium multiflorum ([5]; 80 g/ha of a.i.) | herbicidal activity against Lolium multiflorum ([5]; 320 g/ha of a.i.) | herbicidal activity against Setaria viridis ([6]; 80 g/ha of a.i.) | herbicidal activity against Setaria viridis ([6]; 320 g/ha of a.i.) | herbicidal activity against Echinochloa crus-galli [7] | herbicidal activity against Echinochloa crusgalli [7]

CCc1cc(C)cc(C)c1C1=C(O)C2(CCCC(COC)C2)NC1=O (centres unmarked) [Example I-1-a-27]
≥ 80%: efficacy (aphids killed) [2] | efficacy (spider mites killed) [3] | herbicidal activity against Avena sativa [4] | herbicidal activity against Lolium multiflorum ([5]; 80 g/ha of a.i.) | herbicidal activity against Lolium multiflorum ([5]; 320 g/ha of a.i.) | herbicidal activity against Setaria viridis ([6]; 80 g/ha of a.i.) | herbicidal activity against Setaria viridis ([6]; 320 g/ha of a.i.) | herbicidal activity against Echinochloa crus-galli [7] | herbicidal activity against Echinochloa crusgalli [7]

COCCC1CCC2(CC1)NC(=O)C(c1c(C)cc(Br)cc1C)=C2O (single isomer, unassigned) [Example I-1-a-56]
≥ 80%: efficacy (beetle larvae killed) [1] | efficacy (aphids killed) [2] | efficacy (caterpillars killed) [8] | efficacy (spider mites killed) [3] | herbicidal activity against Avena sativa [4] | herbicidal activity against Lolium multiflorum ([5]; 320 g/ha of a.i.) | herbicidal activity against Setaria viridis ([6]; 320 g/ha of a.i.) | herbicidal activity against Echinochloa crusgalli [7]

COCCC1CCC2(CC1)NC(=O)C(c1c(C)ccc(-c3ccc(Cl)cc3)c1C)=C2O (single isomer, unassigned) [Example I-1-a-53]
≥ 80%: efficacy (beetle larvae killed) [1] | efficacy (aphids killed) [2] | efficacy (caterpillars killed) [8] | efficacy (spider mites killed) [3] | herbicidal activity against Avena sativa [4] | herbicidal activity against Lolium multiflorum ([5]; 320 g/ha of a.i.) | herbicidal activity against Setaria viridis ([6]; 320 g/ha of a.i.) | herbicidal activity against Echinochloa crusgalli [7]

CCOC(=O)OC1=C(c2c(C)cc(Br)cc2CC)C(=O)NC12CCCC(COC)C2 (single isomer, unassigned) [Example I-1-c-11]
≥ 80%: efficacy (aphids killed) [2] | efficacy (spider mites killed) [3] | herbicidal activity against Avena sativa [4] | herbicidal activity against Lolium multiflorum ([5]; 80 g/ha of a.i.) | herbicidal activity against Lolium multiflorum ([5]; 320 g/ha of a.i.) | herbicidal activity against Setaria viridis ([6]; 80 g/ha of a.i.) | herbicidal activity against Setaria viridis ([6]; 320 g/ha of a.i.) | herbicidal activity against Echinochloa crus-galli [7] | herbicidal activity against Echinochloa crusgalli [7]

COCC1CCC2(CC1)NC(=O)C(c1c(C)cc(C)cc1C)=C2O (single isomer, unassigned) [Example I-1-a-2]
≥ 80%: efficacy (beetle larvae killed) [1] | efficacy (aphids killed) [2] | efficacy (caterpillars killed) [8] | efficacy (spider mites killed) [3] | efficacy (kill of aphids) [12] | herbicidal activity against Avena sativa [4] | herbicidal activity against Lolium multiflorum ([5]; 320 g/ha of a.i.) | herbicidal activity against Setaria viridis ([6]; 320 g/ha of a.i.) | herbicidal activity against Echinochloa crusgalli [7]
